Source: article PMC11781175
Results are given in words; binding and its absence hold for the method and conditions named. In cells and extracts the contact can be indirect. Some entries that bind do so weakly or less than the wild type.

The chains behind the UniProt entries cited, without tags or fusion partners.
UniProt P46937: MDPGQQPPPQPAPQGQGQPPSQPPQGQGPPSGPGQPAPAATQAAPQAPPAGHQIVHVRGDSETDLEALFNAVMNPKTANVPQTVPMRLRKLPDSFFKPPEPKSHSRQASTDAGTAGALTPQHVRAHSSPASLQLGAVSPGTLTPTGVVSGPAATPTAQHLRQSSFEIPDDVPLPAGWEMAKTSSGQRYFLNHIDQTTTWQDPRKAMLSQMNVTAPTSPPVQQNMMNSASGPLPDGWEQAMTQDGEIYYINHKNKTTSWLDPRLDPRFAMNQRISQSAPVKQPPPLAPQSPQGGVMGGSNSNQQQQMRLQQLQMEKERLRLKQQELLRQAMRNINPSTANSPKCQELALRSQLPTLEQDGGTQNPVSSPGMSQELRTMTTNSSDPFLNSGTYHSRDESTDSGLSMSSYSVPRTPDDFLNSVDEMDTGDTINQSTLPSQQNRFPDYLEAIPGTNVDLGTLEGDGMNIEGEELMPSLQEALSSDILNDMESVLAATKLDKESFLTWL

Target: Yes1-associated transcriptional regulator (human (endogenous in HK-2)) (UniProt P46937)
Assay: co-IP; HK-2 cell lysates (500 ul lysis buffer, sonicated); supernatant incubated with anti-YAP1 antibody, anti-Nrf2 antibody or control IgG at 4 °C overnight, then protein A/G agarose beads at 4 °C overnight; washed three times; western blotting

B1: Nuclear factor erythroid 2-related factor 2 (protein, UniProt Q16236 1-605)
chain: MMDLELPPPGLPSQQDMDLIDILWRQDIDLGVSREVFDFSQRRKEYELEKQKKLEKERQEQLQKEQEKAFFAQLQLDEETGEFLPIQPAQHIQSETSGSANYSQVAHIPKSDALYFDDCMQLLAQTFPFVDDNEVSSATFQSLVPDIPGHIESPVFIATNQAQSPETSVAQVAPVDLDGMQQDIEQVWEELLSIPELQCLNIENDKLVETTMVPSPEAKLTEVDNYHFYSSIPSMEKEVGNCSPHFLNAFEDSFSSILSTEDPNQLTVNSLNSDATVNTDFGDEFYSAFIAEPSISNSMPSPATLSHSLSELLNGPIDVSDLSLCKAFNQNHPESTAEFNDSDSGISLNTSPSVASPEHSVESSSYGDTLLGLSDSEVEELDSAPGSVKQNGPKTPVHSSGDMVQPLSPSQGQSTHVHDAQCENTPEKELPVSPGHRKTPFTKDKHSSRLEAHLTRDELRAKALHIPFPVEKIINLPVVDFNEMMSKEQFNEAQLALIRDIRRRGKNKVAAQNCRKRKLENIVELEQDLDHLKDEKEKLLKEKGENDKSLHLLKKQLSTLYLEVFSMLRDEDGKPYSPSEYSLQQTRDGNVFLVPKSKKPDVKKN
binding: binds
